Numbering of substitutions follows the chain as printed. Names may count otherwise. No constants are given. Whether binding was seen depends on the method and setting. Binding seen in cells or lysates may run through a third protein. Some entries that bind do so weakly or less than the wild type. Tags and fused reporters may be left off the sequences shown. One block for each binder: values may come before it.
Molecular target: T1, Human Chloride Channel Accessory 2 (CLCA2), wildtype precursor (human) (UniProt Q9UQC9)
T1 sequence: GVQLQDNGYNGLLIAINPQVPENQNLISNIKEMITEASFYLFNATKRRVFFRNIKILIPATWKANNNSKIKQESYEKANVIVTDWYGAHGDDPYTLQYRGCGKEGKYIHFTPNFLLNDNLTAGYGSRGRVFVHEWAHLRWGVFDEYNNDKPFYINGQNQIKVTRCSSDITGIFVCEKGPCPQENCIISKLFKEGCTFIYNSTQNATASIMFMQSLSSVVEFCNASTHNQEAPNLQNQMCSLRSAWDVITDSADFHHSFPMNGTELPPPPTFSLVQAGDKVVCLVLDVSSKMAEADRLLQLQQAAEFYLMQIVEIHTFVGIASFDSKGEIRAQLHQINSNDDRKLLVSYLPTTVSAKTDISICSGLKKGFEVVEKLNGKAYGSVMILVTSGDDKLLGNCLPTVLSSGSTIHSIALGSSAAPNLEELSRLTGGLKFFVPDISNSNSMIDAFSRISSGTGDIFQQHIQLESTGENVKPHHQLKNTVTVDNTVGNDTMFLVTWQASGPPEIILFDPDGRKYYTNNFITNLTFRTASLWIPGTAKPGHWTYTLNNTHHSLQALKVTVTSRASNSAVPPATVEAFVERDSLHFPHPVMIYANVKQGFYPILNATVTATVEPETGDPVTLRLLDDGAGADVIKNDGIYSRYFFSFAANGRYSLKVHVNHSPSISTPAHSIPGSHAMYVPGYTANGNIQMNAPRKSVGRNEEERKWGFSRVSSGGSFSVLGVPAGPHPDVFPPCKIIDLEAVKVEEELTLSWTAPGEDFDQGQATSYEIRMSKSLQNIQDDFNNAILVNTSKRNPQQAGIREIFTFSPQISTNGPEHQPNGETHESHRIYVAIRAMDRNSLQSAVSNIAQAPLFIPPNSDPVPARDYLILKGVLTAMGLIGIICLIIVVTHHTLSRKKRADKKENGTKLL
Assay: co-IP; HEK293T co-transfected or singly transfected; lysates after 48 h in 25 mM Tris pH 7.4, 150 mM NaCl, 2.5 mM MgCl2, 0.5 mM EDTA, 0.5% NP40, 1 mM DTT, 5% glycerol, 1% aprotinin; IP with anti-Myc or anti-Flag antibody and Protein A-Sepharose; blots probed with anti-Myc or anti-Flag

binding: binds
B1: Human Chloride Channel Accessory 2 (CLCA2), wildtype precursor (protein, UniProt Q9UQC9 32-943)
chain: T1 sequence

binding: binds
B2: CLCA2 E165Q mutant, Flag-tagged (protein, UniProt Q9UQC9 32-943)
chain: T1 sequence with E134Q

Source: publication PMC10669480
